PubChem BioAssay AID1508597 | Cure First, 2020
The whole screen tested about 2,100 reagents; shown is an unselected part. 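Calls flag viability under 80% in either arm, not effects specific to rucaparib; the reference for percent is not stated.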 Not stated in the record: the 100% reference.

- Assay: 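Survival screen with siRNA in ovarian cancer cells derived from patients, with or without rucaparib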 (primary screen)
- System: human ovarian carcinoma lines grown from tumours: OCI-P5x (papillary serous) and OCI-C5x (clear cell)
- Reagent: siRNA pool against human genes, 1.25 pmol siRNA per well
- Timing: 72 h or 96 h, depending on the cell culture
- Conditions: rucaparib 20 µM (about IC30) or vehicle, present until read-out
- Read-out: 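ATP luminescence measured at 72 or 96 h according to the culture, then normalised and expressed as percent viability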
- Reading the numbers: viability, normalised: higher = more viable cells remaining
- Rule for the call: 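Active when normalised viability falls below 80 percent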
- Meaning of the calls: active = viability under 80%; inactive = viability 80% or more

| gene knocked down | rucaparib or vehicle | cell line | technical replicate | viability, normalised (%) | call |
| --- | --- | --- | --- | --- | --- |
| GTF2H3 | Rucaparib | OCI-C5x (clear cell) | 1 | 52.1 | active |
| GTF2H3 | Rucaparib | OCI-C5x (clear cell) | 2 | 46.4 | active |
| GTF2H3 | Rucaparib | OCI-C5x (clear cell) | 3 | 38.9 | active |
| GTF2H3 | Rucaparib | OCI-P5x (serous) | 1 | 71.5 | active |
| GTF2H3 | Rucaparib | OCI-P5x (serous) | 2 | 77 | active |
| GTF2H3 | Rucaparib | OCI-P5x (serous) | 3 | 63.7 | active |
| GTF2H3 | Vehicle | OCI-C5x (clear cell) | 1 | 57.7 | active |
| GTF2H3 | Vehicle | OCI-C5x (clear cell) | 2 | 45.6 | active |
| GTF2H3 | Vehicle | OCI-C5x (clear cell) | 3 | 41.6 | active |
| GTF2H3 | Vehicle | OCI-P5x (serous) | 1 | 48.8 | active |
| GTF2H3 | Vehicle | OCI-P5x (serous) | 2 | 67.9 | active |
| GTF2H3 | Vehicle | OCI-P5x (serous) | 3 | 60.4 | active |
| TLR8 | Rucaparib | OCI-C5x (clear cell) | 1 | 73.5 | active |
| TLR8 | Rucaparib | OCI-C5x (clear cell) | 2 | 65.6 | active |
| TLR8 | Rucaparib | OCI-C5x (clear cell) | 3 | 59.1 | active |
| TLR8 | Rucaparib | OCI-P5x (serous) | 1 | 58.3 | active |
| TLR8 | Rucaparib | OCI-P5x (serous) | 2 | 57 | active |
| TLR8 | Rucaparib | OCI-P5x (serous) | 3 | 53.7 | active |
| TLR8 | Vehicle | OCI-C5x (clear cell) | 1 | 54 | active |
| TLR8 | Vehicle | OCI-C5x (clear cell) | 2 | 53.4 | active |
| TLR8 | Vehicle | OCI-C5x (clear cell) | 3 | 47.8 | active |
| TLR8 | Vehicle | OCI-P5x (serous) | 1 | 66.8 | active |
| TLR8 | Vehicle | OCI-P5x (serous) | 2 | 80.6 | inactive |
| TLR8 | Vehicle | OCI-P5x (serous) | 3 | 57.2 | active |
| COASY | Rucaparib | OCI-C5x (clear cell) | 1 | 47.1 | active |
| COASY | Rucaparib | OCI-C5x (clear cell) | 2 | 37 | active |
| COASY | Rucaparib | OCI-C5x (clear cell) | 3 | 58.1 | active |
| COASY | Rucaparib | OCI-P5x (serous) | 1 | 60.6 | active |
| COASY | Rucaparib | OCI-P5x (serous) | 2 | 68.6 | active |
| COASY | Rucaparib | OCI-P5x (serous) | 3 | 50.8 | active |
| COASY | Vehicle | OCI-C5x (clear cell) | 1 | 122 | inactive |
| COASY | Vehicle | OCI-C5x (clear cell) | 2 | 60.4 | active |
| COASY | Vehicle | OCI-C5x (clear cell) | 3 | 57.5 | active |
| COASY | Vehicle | OCI-P5x (serous) | 1 | 75.4 | active |
| COASY | Vehicle | OCI-P5x (serous) | 2 | 62.6 | active |
| COASY | Vehicle | OCI-P5x (serous) | 3 | 52.7 | active |

A few values from the list:
For “call”, TLR8, rucaparib or vehicle Vehicle, cell line OCI-P5x (serous), technical replicate 1 reads active
Under “viability, normalised (%)”, COASY, rucaparib or vehicle Vehicle, cell line OCI-C5x (clear cell), technical replicate 3 is entered as 57.5
TLR8, rucaparib or vehicle Vehicle, cell line OCI-P5x (serous), technical replicate 2, call = inactive

Additional entries follow:
| gene knocked down | rucaparib or vehicle | cell line | technical replicate | viability, normalised (%) | call |
| --- | --- | --- | --- | --- | --- |
| SMARCE1 | Rucaparib | OCI-C5x (clear cell) | 1 | 25.2 | active |
| SMARCE1 | Rucaparib | OCI-C5x (clear cell) | 2 | 46.3 | active |
| SMARCE1 | Rucaparib | OCI-C5x (clear cell) | 3 | 31.9 | active |
| SMARCE1 | Rucaparib | OCI-P5x (serous) | 1 | 55.2 | active |
| SMARCE1 | Rucaparib | OCI-P5x (serous) | 2 | 62.1 | active |
| SMARCE1 | Rucaparib | OCI-P5x (serous) | 3 | 67 | active |
| SMARCE1 | Vehicle | OCI-C5x (clear cell) | 1 | 39.9 | active |
| SMARCE1 | Vehicle | OCI-C5x (clear cell) | 2 | 30.3 | active |
| SMARCE1 | Vehicle | OCI-C5x (clear cell) | 3 | 27.3 | active |
| SMARCE1 | Vehicle | OCI-P5x (serous) | 1 | 56.3 | active |
| SMARCE1 | Vehicle | OCI-P5x (serous) | 2 | 58.8 | active |
| SMARCE1 | Vehicle | OCI-P5x (serous) | 3 | 71.7 | active |
| MTRF1L | Rucaparib | OCI-C5x (clear cell) | 1 | 62.9 | active |
| MTRF1L | Rucaparib | OCI-C5x (clear cell) | 2 | 54.8 | active |
| MTRF1L | Rucaparib | OCI-C5x (clear cell) | 3 | 67.3 | active |
| MTRF1L | Rucaparib | OCI-P5x (serous) | 1 | 50.5 | active |
| MTRF1L | Rucaparib | OCI-P5x (serous) | 2 | 44.3 | active |
| MTRF1L | Rucaparib | OCI-P5x (serous) | 3 | 48.5 | active |
| MTRF1L | Vehicle | OCI-C5x (clear cell) | 1 | 53.8 | active |
| MTRF1L | Vehicle | OCI-C5x (clear cell) | 2 | 68.6 | active |
| MTRF1L | Vehicle | OCI-C5x (clear cell) | 3 | 71.7 | active |
| MTRF1L | Vehicle | OCI-P5x (serous) | 1 | 37.9 | active |
| MTRF1L | Vehicle | OCI-P5x (serous) | 2 | 50.3 | active |
| MTRF1L | Vehicle | OCI-P5x (serous) | 3 | 59 | active |
